In article PMC4381595:
These are yes or no findings as the source states them, for the method shown. Binding seen in cells or lysates may run through a third protein. Some entries that bind do so weakly or less than the wild type.

The chains behind the UniProt entries cited, without tags or fusion partners.
UniProt Q15648: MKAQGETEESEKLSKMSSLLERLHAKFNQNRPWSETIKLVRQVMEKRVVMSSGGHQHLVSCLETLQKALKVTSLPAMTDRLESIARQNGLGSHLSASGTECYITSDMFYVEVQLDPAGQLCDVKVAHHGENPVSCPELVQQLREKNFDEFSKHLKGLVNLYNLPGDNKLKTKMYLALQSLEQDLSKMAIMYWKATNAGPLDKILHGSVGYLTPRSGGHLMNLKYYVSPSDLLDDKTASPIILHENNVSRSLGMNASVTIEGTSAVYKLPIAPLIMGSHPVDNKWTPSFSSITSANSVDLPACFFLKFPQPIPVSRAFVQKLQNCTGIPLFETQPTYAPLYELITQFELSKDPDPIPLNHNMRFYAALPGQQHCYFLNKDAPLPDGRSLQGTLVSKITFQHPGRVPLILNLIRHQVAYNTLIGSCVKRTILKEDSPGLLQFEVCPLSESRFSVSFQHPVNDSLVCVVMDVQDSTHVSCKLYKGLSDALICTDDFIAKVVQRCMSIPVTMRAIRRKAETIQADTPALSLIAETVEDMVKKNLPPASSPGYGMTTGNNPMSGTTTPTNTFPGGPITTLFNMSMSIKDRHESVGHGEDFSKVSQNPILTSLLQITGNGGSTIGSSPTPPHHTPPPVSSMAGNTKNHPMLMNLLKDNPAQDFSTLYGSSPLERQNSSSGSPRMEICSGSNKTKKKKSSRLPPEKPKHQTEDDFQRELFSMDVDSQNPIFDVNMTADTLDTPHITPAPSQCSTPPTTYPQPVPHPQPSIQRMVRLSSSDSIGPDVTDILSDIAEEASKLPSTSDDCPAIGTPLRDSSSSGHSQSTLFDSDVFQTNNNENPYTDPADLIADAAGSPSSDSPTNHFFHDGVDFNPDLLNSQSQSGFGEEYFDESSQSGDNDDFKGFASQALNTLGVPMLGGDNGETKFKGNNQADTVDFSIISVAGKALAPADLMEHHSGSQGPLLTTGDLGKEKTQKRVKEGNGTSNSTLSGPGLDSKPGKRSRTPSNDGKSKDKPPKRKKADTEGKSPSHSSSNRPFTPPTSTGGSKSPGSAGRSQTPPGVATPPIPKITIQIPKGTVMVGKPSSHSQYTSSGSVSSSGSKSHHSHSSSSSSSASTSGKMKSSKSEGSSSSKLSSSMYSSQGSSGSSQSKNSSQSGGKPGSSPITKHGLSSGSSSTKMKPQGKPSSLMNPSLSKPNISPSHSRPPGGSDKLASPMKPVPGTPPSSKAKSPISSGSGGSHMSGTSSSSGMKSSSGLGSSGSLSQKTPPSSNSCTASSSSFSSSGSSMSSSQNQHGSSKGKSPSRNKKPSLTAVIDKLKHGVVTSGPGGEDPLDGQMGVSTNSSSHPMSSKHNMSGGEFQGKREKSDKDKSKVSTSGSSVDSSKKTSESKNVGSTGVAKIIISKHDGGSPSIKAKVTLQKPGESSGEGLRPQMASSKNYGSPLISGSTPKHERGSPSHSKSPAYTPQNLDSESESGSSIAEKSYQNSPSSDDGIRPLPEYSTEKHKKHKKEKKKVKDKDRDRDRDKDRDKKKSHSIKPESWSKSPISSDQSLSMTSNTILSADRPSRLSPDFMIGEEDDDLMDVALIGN

What was measured:
[1] = biological target: phosphorylated MED1 (Mediator complex subunit 1), endogenous (human (endogenous in LNCaP and M12)) (UniProt Q15648); test: co-IP; anti-p-MED1 IP from lysates of the cumate-inducible LNCaP-AR^v567es stable line; protein A/G beads; Western blot
[2] = biological target: phosphorylated MED1 (Mediator complex subunit 1), endogenous (human (endogenous in LNCaP and M12)) (UniProt Q15648); test: co-IP; anti-p-MED1 IP from lysates of the cumate-inducible AR-null M12-AR^v567es stable line; protein A/G beads; Western blot

binding [1]: binds | binding [2]: binds
B1: FoxA1, endogenous (protein, UniProt P55317 1-472)
chain: MLGTVKMEGHETSDWNSYYADTQEAYSSVPVSNMNSGLGSMNSMNTYMTMNTMTTSGNMTPASFNMSYANPGLGAGLSPGAVAGMPGGSAGAMNSMTAAGVTAMGTALSPSGMGAMGAQQAASMNGLGPYAAAMNPCMSPMAYAPSNLGRSRAGGGGDAKTFKRSYPHAKPPYSYISLITMAIQQAPSKMLTLSEIYQWIMDLFPYYRQNQQRWQNSIRHSLSFNDCFVKVARSPDKPGKGSYWTLHPDSGNMFENGCYLRRQKRFKCEKQPGAGGGGGSGSGGSGAKGGPESRKDPSGASNPSADSPLHRGVHGKTGQLEGAPAPGPAASPQTLDHSGATATGGASELKTPASSTAPPISSGPGALASVPASHPAHGLAPHESQLHLKGDPHYSFNHPFSINNLMSSSEQQHKLDFKAYEQALQYSPYGSTLPASLPLGSASVTTRSPIEPSALEPAYYQGVYSRPVLNTS
